Source: US12257237B2 (priority 2017, dated 2025)
Values joined by “and” are separate entries in the source; they are usually repeats but may differ in a detail not shown here. Equal entries are not always repeated. Further values from the same series stand in other lists.

Tested on: DD013 dedifferentiated liposarcoma
Assay: Antitumour activity in DD013 dedifferentiated liposarcoma xenograft model
Format: in vivo, Athymic nude mice
Method: Experiments were performed with female Athymic nude mice, 9-10 weeks old obtained from Harlan Laboratories (Udine, Italy). They were maintained under Specific Pathogen Free conditions with constant temperature and humidity, according to the institutional guidelines.
Tumour growth mice was monitored two/three times a week (depending on tumour growth rate, to avoid unnecessary stress to the animals) by Vernier caliper. Mice were sacrificed when tumour reached a mean weight of 2±0.5 gr. The antitumour activity will be expressed as T/C %, where T and C were the mean tumour weight of treated and control groups, respectively. Mice were monitored daily and weighted at least two times a week. Tolerability was evaluated on the basis of body weight loss (BWL) and clinical observation.
Statistical analysis was performed with GraphPad Prism version 6.01 software (GraphPad software, Inc., La Jolla, CA, USA). ANOVA test was performed to evaluate if there were statistically significant differences between treated and control groups.
Briefly, xenografts were obtained by transplanting 3-4 mm tumour fragments s.c. in the flanks of mice. The growing tumour masses were measured with the aid of a Vernier caliper, and the tumour weights (TW, 1 mm^3=1 mg) were calculated by the formula: length×(width) 2/2. When tumour load achieved about 200-400 mg, mice were randomized into the experimental groups.

Compound: Cn1c(CCCCCCC(=O)NO)nc2cc(N(CCCl)CCCl)ccc21 [EDO-S101, 7-(5-(bis(2-chloroethyl)amino)-1-methyl-1H-benzo[d]imidazol-2-yl)-N-hydroxyheptanamide]
- DD0113 tumour weight, individual mouse (EDO40: EDO-S101 40 mg/kg q7dx3, day 23 from inoculum, 40 mg/kg): 376.6 mg and 272.5 mg and 234.4 mg and 224.8 mg and 191.1 mg and 172.9 mg and 124.8 mg and 103.7 mg and 86.8 mg
- DD0113 tumour weight, individual mouse (EDO40: EDO-S101 40 mg/kg q7dx3, day 26 from inoculum, 40 mg/kg): 541.5 mg and 407.4 mg and 341.7 mg and 312.6 mg and 284.8 mg and 244.9 mg and 208.4 mg and 138.3 mg and 72.8 mg
- DD0113 tumour weight, individual mouse (EDO40: EDO-S101 40 mg/kg q7dx3, day 29 from inoculum, 40 mg/kg): 577.2 mg and 528.9 mg and 304.2 mg and 326.8 mg and 350.2 mg and 315.8 mg and 218.0 mg and 150.5 mg and 101.4 mg
- DD0113 tumour weight, individual mouse (EDO40: EDO-S101 40 mg/kg q7dx3, day 33 from inoculum, 40 mg/kg): 733.4 mg and 620.3 mg and 386.0 mg and 398.8 mg and 400.6 mg and 410.8 mg and 307.5 mg and 165.2 mg and 127.5 mg
- DD0113 tumour weight, individual mouse (EDO40: EDO-S101 40 mg/kg q7dx3, day 36 from inoculum, 40 mg/kg): 740.0 mg and 636.3 mg and 313.7 mg and 375.3 mg and 376.9 mg and 408.8 mg and 294.7 mg and 125.0 mg and 151.8 mg
- DD0113 tumour weight, individual mouse (EDO40: EDO-S101 40 mg/kg q7dx3, day 40 from inoculum, 40 mg/kg): 853.1 mg and 647.3 mg and 394.8 mg and 445.1 mg and 470.3 mg and 402.2 mg and 363.7 mg and 150.4 mg and 174.0 mg
- DD0113 tumour weight, individual mouse (EDO40: EDO-S101 40 mg/kg q7dx3, day 43 from inoculum, 40 mg/kg): 874.8 mg and 620.0 mg and 382.2 mg and 452.6 mg and 614.9 mg and 419.5 mg and 359.8 mg and 143.6 mg and 194.8 mg
- DD0113 tumour weight, individual mouse (EDO40: EDO-S101 40 mg/kg q7dx3, day 47 from inoculum, 40 mg/kg): 951.5 mg and 867.8 mg and 374.0 mg and 447.7 mg and 502.6 mg and 504.6 mg and 551.2 mg and 155.1 mg and 211.9 mg
- DD0113 tumour weight, individual mouse (EDO40: EDO-S101 40 mg/kg q7dx3, day 50 from inoculum, 40 mg/kg): 1015.8 mg and 910.3 mg and 477.7 mg and 675.3 mg and 556.8 mg and 593.9 mg and 509.8 mg and 166.1 mg and 228.8 mg
- DD0113 tumour weight, individual mouse (EDO40: EDO-S101 40 mg/kg q7dx3, day 54 from inoculum, 40 mg/kg): 1218.3 mg and 849.1 mg and 407.8 mg and 650.3 mg and 641.5 mg and 566.8 mg and 653.1 mg and 138.4 mg and 270.3 mg
- DD0113 tumour weight, individual mouse (EDO40: EDO-S101 40 mg/kg q7dx3, day 58 from inoculum, 40 mg/kg): 1198.4 mg and 939.5 mg and 361.1 mg and 647.5 mg and 526.9 mg and 517.8 mg and 678.7 mg and 148.4 mg and 238.9 mg
- DD0113 tumour weight, individual mouse (EDO40: EDO-S101 40 mg/kg q7dx3, day 62 from inoculum, 40 mg/kg): 1270.3 mg and 1057.1 mg and 400.9 mg and 778.6 mg and 706.2 mg and 694.4 mg and 795.3 mg and 127.1 mg and 271.1 mg
- DD0113 tumour weight, individual mouse (EDO40: EDO-S101 40 mg/kg q7dx3, day 65 from inoculum, 40 mg/kg): 1227.3 mg and 1277.6 mg and 371.1 mg and 690.9 mg and 485.1 mg and 740.8 mg and 906.7 mg and 153.2 mg and 247.5 mg
- DD0113 tumour weight, individual mouse (EDO40: EDO-S101 40 mg/kg q7dx3, day 69 from inoculum, 40 mg/kg): 1303.1 mg and 1503.3 mg and 405.2 mg and 866.7 mg and 447.9 mg and 712.8 mg and 742.0 mg and 124.4 mg and 223.2 mg
- DD0113 tumour weight, individual mouse (EDO40: EDO-S101 40 mg/kg q7dx3, day 72 from inoculum, 40 mg/kg): 1437.5 mg and 1078.7 mg and 409.0 mg and 909.6 mg and 438.2 mg and 702.4 mg and 638.6 mg and 146.3 mg and 267.4 mg
- DD0113 tumour weight, individual mouse (EDO40: EDO-S101 40 mg/kg q7dx3, day 75 from inoculum, 40 mg/kg): 1469.1 mg and 1076.6 mg and 425.4 mg and 836.1 mg and 429.0 mg and 742.0 mg and 670.3 mg and 117.4 mg and 229.4 mg
- DD0113 tumour weight, individual mouse (EDO40: EDO-S101 40 mg/kg q7dx3, day 79 from inoculum, 40 mg/kg): 1640.1 mg and 1320.3 mg and 560.8 mg and 876.4 mg and 387.3 mg and 854.9 mg and 755.9 mg and 144.0 mg and 271.2 mg
- DD0113 tumour weight, individual mouse (EDO40: EDO-S101 40 mg/kg q7dx3, day 83 from inoculum, 40 mg/kg): 1758.9 mg and 1083.6 mg and 394.8 mg and 1023.8 mg and 391.4 mg and 677.5 mg and 567.8 mg and 83.9 mg and 173.5 mg
- DD0113 tumour weight, individual mouse (EDO40: EDO-S101 40 mg/kg q7dx3, day 87 from inoculum, 40 mg/kg): 2103.7 mg and 1649.4 mg and 526.5 mg and 1294.1 mg and 457.1 mg and 994.3 mg and 1055.8 mg and 95.8 mg and 245.9 mg
- DD0113 tumour weight, individual mouse (EDO40: EDO-S101 40 mg/kg q7dx3, day 90 from inoculum, 40 mg/kg): 2135.1 mg and 1918.5 mg and 598.6 mg and 1450.6 mg and 463.8 mg and 1104.6 mg and 1165.7 mg and 119.3 mg and 249.5 mg
- DD0113 tumour weight, individual mouse (EDO40: EDO-S101 40 mg/kg q7dx3, day 94 from inoculum, 40 mg/kg): 2516.4 mg and 2036.1 mg and 820.3 mg and 1686.1 mg and 542.4 mg and 1322.5 mg and 1662.8 mg and 133.6 mg and 318.3 mg
- DD0113 tumour weight, individual mouse (EDO40: EDO-S101 40 mg/kg q7dx3, day 98 from inoculum, 40 mg/kg): 2716.0 mg and 1993.4 mg and 913.4 mg and 1775.6 mg and 446.5 mg and 1827.2 mg and 1853.1 mg and 145.4 mg and 371.6 mg
- DD0113 tumour weight, individual mouse (EDO40: EDO-S101 40 mg/kg q7dx3, day 100 from inoculum, 40 mg/kg): 3162.4 mg and 2274.9 mg and 963.9 mg and 2276.4 mg and 533.5 mg and 2007.9 mg and 2178.4 mg and 160.4 mg and 419.7 mg
- DD0113 tumour weight, individual mouse (EDO60: EDO-S101 60 mg/kg q7dx3, day 23 from inoculum, 60 mg/kg): 390.7 mg and 270.8 mg and 256.0 mg and 208.0 mg and 186.9 mg and 149.8 mg and 137.4 mg and 98.0 mg and 95.4 mg
- DD0113 tumour weight, individual mouse (EDO60: EDO-S101 60 mg/kg q7dx3, day 26 from inoculum, 60 mg/kg): 581.5 mg and 439.5 mg and 349.4 mg and 277.6 mg and 282.9 mg and 149.7 mg and 162.1 mg and 93.0 mg and 117.1 mg
- DD0113 tumour weight, individual mouse (EDO60: EDO-S101 60 mg/kg q7dx3, day 29 from inoculum, 60 mg/kg): 713.8 mg and 542.7 mg and 408.5 mg and 245.2 mg and 337.8 mg and 127.5 mg and 180.6 mg and 129.5 mg and 107.7 mg
